The name of at least one read-out is uncertain.
Test system: attachment of HIV-1 to fresh human PBLs
Assay: virus attachment assay, HIV-1RF to PBLs (p24-based)
Format: cell-based
Conditions: Table 6; 30 min
Description: Binding of HIV-1RF to PBLs was measured by a p24-based assay (Rice, et al., Proc. Nat'l. Academy of Science USA 90: 9721-9724, (1993)). Briefly, 5×10^5 PBLs were incubated with a concentrated stock of virus for 30 min. at 37° C. in the absence or presence of various concentrations of 624151, the unbound virus was washed away, and the cell-associated virus was solubilized in 1% Triton X-100, 1% BSA and analyzed by the p24 antigen capture assay as previously described. The binding of gp120to CD4 was analyzed using an antigen capture ELISA. All steps of the assay were carried out according to the manufacturer's protocols.
^.dagger. Attachment of HIV1 to fresh human PBLs, binding of gp120 to […]

Compound `O=S1(=O)C[C@H](O)[C@H](O)CS1` (single isomer, unassigned) [NSC 693194, (+)-cis-4,5-Dihydroxy-1,2-dithiane 1,1-dioxide] has an IC50 of over 100 µM.
